Reference: publication PMC8595659
Construct, isoform or probe ends are uncertain for at least one entry. Negatives hold for the conditions tested. At least one verdict was read from the data and is not stated in words by the source.

Amino acid sequences for entries named in this document (tags omitted). A change or cut given only in a name is not applied to a line headed by its entry.
UniProt Q08050: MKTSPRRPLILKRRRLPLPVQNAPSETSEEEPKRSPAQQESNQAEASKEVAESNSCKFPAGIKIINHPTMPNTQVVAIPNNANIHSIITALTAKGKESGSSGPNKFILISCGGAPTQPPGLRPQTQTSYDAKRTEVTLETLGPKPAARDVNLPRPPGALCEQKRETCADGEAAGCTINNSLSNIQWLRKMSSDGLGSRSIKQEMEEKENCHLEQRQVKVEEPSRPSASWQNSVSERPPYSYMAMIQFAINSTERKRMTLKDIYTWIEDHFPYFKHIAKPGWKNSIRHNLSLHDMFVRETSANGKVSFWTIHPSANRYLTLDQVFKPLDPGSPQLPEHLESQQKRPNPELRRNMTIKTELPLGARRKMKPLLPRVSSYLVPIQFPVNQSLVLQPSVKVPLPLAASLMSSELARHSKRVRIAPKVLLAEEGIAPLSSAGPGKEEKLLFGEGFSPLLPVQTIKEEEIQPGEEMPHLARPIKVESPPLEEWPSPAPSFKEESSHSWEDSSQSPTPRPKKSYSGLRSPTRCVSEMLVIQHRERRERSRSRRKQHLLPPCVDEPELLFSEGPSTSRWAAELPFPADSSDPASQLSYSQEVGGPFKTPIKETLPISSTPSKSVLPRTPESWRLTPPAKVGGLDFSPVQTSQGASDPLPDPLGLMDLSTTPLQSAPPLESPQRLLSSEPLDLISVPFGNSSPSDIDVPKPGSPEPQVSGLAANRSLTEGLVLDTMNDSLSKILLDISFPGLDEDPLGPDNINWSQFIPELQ

Biological target: GST-FOXM1 (human) (UniProt Q08050)
Assay: EMSA
Settings: 25 mM HEPES-KOH pH 7.5, 100 mM KCl, 1 mM DTT, 0.1 mM EDTA, 20% glycerol, 50 ng protein, 1 pmol probe in 20 uL, room temperature 30 min; commercial protein; protein details: GST (N-terminal); label: 5' biotin

Sequence	binding result
GTAGCTGTTTCTTCAGTTGTTTTGGGTTACACACATTTGTACATATTGGTGGGGGTCTCT (double strand) [UBE2S promoter Site2 (MUT)]	no binding
ACAGGGCTGCATCAACACACCTGGCTAAACACAATTTTTAGTACAGATGGGGTTTCAC (double strand) [UBE2S promoter Site1 (MUT)]	no binding
